# At least one structure is not confirmed: it was looked up by name or label, or the drawing left a doubt.
# How the values were obtained:
# [1] = tested on: mouse parotid acinar cells; assay: Forskolin effect on ATP-evoked [Ca2+]i in fura-2 loaded mouse parotid acinar cells; format: cell-based; settings: La^3+ present (P2Y receptors isolated)
# [2] = tested on: human parotid acinar cells; assay: Forskolin effect on CCh-evoked [Ca2+]i in human parotid acinar cells; format: cell-based; settings: human parotid acini
smiles,measurement,setting,value
C=C[C@@]1(C)CC(=O)[C@]2(O)[C@@]3(C)[C@@H](O)CCC(C)(C)[C@@H]3[C@H](O)[C@H](OC(C)=O)[C@@]2(C)O1 [forskolin],effect on ATP-evoked [Ca^2+]i,[1],markedly enhanced
same,effect on CCh-induced [Ca^2+]i elevation,[2],potentiated

# — patent US20080039410A1, “Inositol 1,4,5-Trisphosphate Receptor Mutants and Uses Thereof” (priority 2004, published 2008)
